According to patent US20230002320A1, “COMPOUNDS AND COMPOSITIONS FOR TREATING CONDITIONS ASSOCIATED WITH STING ACTIVITY” (IFM Due, Inc., priority 2019, published 2023):
The structures given here were assigned with low confidence; some may be wrong.

The chains behind the UniProt entries cited, without tags or fusion partners.
UniProt Q86WV6, whole entry R71H/G230A/H232R/R293Q: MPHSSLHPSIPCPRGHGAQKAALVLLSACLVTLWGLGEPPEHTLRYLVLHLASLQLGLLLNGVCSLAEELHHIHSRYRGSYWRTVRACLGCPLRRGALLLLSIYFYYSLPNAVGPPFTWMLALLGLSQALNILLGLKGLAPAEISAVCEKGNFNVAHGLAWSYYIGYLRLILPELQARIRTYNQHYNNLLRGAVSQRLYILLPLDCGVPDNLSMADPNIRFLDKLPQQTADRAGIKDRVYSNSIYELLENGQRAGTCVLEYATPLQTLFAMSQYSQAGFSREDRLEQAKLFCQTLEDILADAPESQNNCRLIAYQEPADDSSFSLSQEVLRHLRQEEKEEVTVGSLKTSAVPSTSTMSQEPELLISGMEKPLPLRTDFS

Molecular target: hSTING (Homo sapiens, UniProt Q86WV6)
Assay: STING reporter assay (luciferase) in THP1-Dual KO-IFNAR2 cells activated with 2'3' cGAMP
Format: cell-based
Conditions: read-out: hSTING: EC50, 15 μM 2'3' cGAMP, 24 h
Description: STING pathway activation by the compounds described herein was measured using THP1-Dual™ cells (KO-IFNAR2).
THP1-Dual™ KO-IFNAR2 Cells (obtained from invivogen) were maintained in RPMI, 10% FCS, 5 ml P/S, 2 mM L-glut, 10 mM Hepes, and 1 mM sodium pyruvate. Compounds were spotted in empty 384 well tissue culture plates (Greiner 781182) by Echo for a final concentration of 0.0017-100 μM. Cells were plated into the TC plates at 40 μL per well, 2×10E6 cells/mL. For activation with STING ligand, 2′3′ cGAMP (MW 718.38, obtained from Invivogen), was prepared in Optimem media. […]
2 mL of solution A and 2 ml Solution B was mixed and incubated for 20 min at room temperature (RT). […] Luciferase reporter activity was then measured. EC50 values were calculated by using standard methods known in the art.
Luciferase reporter assay: 10 μL of supernatant from the assay was transferred to white 384-plate with flat bottom and squared wells. one pouch of QUANTI-Luc™ Plus was dissolved in 25 mL of water. […] Luminescence was measured on a Platereader (e.g., Spectramax I3X (Molecular Devices GF3637001)).
Luciferase reporter activity was then measured. EC50 values were calculated by using standard methods known in the art. […]

EC50: 200 to 1000 nM
SMILES: CC(C)(O)Cn1cc(-c2ccc3[nH]cc(NC(=O)Nc4ccc(C(F)(F)F)cc4)c3c2)cn1 [Compound 297, 1-(5-(1-(2-hydroxy-2-methylpropyl)-1H-pyrazol-4-yl)-1H-indol-3-yl)-3-(4-(trifluoromethyl)phenyl)urea]
